{
  "source": "patent US9670244B2",
  "about": "“Oxysterol compounds and the hedgehog pathway” (THE REGENTS OF THE UNIVERSITY OF CALIFORNIA, priority 2006, dated 2017)",
  "key": {"[1]": {"system": "Gli-1 and Ptch mRNA", "assay": "Q-RT-PCR of hedgehog pathway genes in M2 cells", "assay_type": "cell-based, mouse", "conditions": "SS 24 hours, pretreatment or co-treatment with agent", "description": "Q-RT-PCR was performed using reverse-transcribed RNA isolated from M2 cells using phenol/chloroform method. PCR reactions were performed using iQ SYBR Green Supermix and an iCycler RT-PCR Detection System (BIO-RAD Laboratories, Hercules, Calif.). Primer sequences for Gli-1, Gli-2, Gli-3, Shh and Ihh were kindly provided by Dr. Fanxin Long (Washington University, St. Louis, Mo.). Ptch and Smo primer sequences are available upon request. Q-RT-PCR data were normalized to cyclophilin expression and relative expression levels were calculated using the […] method (Livak et al. (2001) Methods 25, 402-408)."}, "[2]": {"system": "pMARCKS, pPKA, pCREB", "assay": "Western blotting of phosphorylated proteins in M2 cell lysates", "assay_type": "cell-based, mouse", "conditions": "forskolin 10 μM 30 minute; oxysterols 10 min to 48 hours", "description": "After treatments, cells were lysed in lysis buffer, protein concentrations determined using the Bio-Rad protein assay (Hercules, Calif.), and SDS-PAGE was performed, probing for native and phosphorylated proteins.\nWe previously reported that oxysterol-induced osteoblastic differentiation of cells is mediated via protein kinase C (PKC)- and protein kinase A (PKA)-dependent mechanisms. The role of these signaling pathways in regulating the different markers of osteoblastic differentiation appears to be both specific and overlapping. To begin elucidating the possible role of PKC and PKA in mediating oxysterol-induced Hh pathway activation, we examined the effect of PKC and PKA inhibitors on markers of Hh pathway activation. […] Similarly, oxysterol-induced Gli-1 and Ptch expression was inhibited in cells whose PKC stores were depleted following overnight pretreatment with 1 μM PMA (FIG. 6c,d). We next examined whether oxysterols induced PKC activation by assessing the levels of phosphorylated MARCKS (pMARCKS), a PKC substrate, by Western blotting.\nTo examine the possible role of PKA in oxysterol-induced Hh pathway activation, the effect of PKA inhibitor, H-89, previously found to inhibit the induction of some, but not all, markers of osteoblastic differentiation, on oxysterol-induced Gli-1 and Ptch mRNA expression was assessed by Q-RT-PCR."}},
  "note": "For at least one compound, name, drawing or mass did not settle the structure.",
  "data": [
    {"smiles": "C=C[C@@]1(C)CC(=O)[C@]2(O)[C@@]3(C)[C@@H](O)CCC(C)(C)[C@@H]3[C@H](O)[C@H](OC(C)=O)[C@@]2(C)O1", "note": "[forskolin]", "values": [
      {"measurement": "Inhibition of oxysterol-induced Gli-1 and Ptch mRNA expression", "setting": "[1]", "result": "completely inhibited"},
      {"measurement": "Phosphorylated PKA (pPKA) or phosphorylated CREB (pCREB) levels", "setting": "[2]", "result": "significantly induced pCREB levels"}
    ]}
  ]
}
